# Laboratory results from the supplement of paper PMC4604168 (melanoma cell lines).
# The other results are listed elsewhere or left out. Repeats are few or missing, and single values can be far off.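 The apoptosis fraction was the count of cleaved-PARP antibody-stained nuclei relative to all DNA-stained nuclei, imaged in 1,536-well plates. Screening doses were set so most cells survived, and baseline and induced cleaved-PARP levels vary greatly across cell lines.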
# Test system: C32
# Assay: cleaved PARP positive nuclei fraction relative to DMSO control; melanoma cells; higher = more apoptosis
# Details: library dose: low library concentration; 72 h
row,SMILES,cleaved PARP positive nuclei fraction [%]
1,"OCCn1cc(-c2cnc3nnn(Cc4ccc5ncccc5c4)c3n2)cn1 + Cc1cc([N+](=O)[O-])ccc1NS(=O)(=O)c1cc(Cl)ccc1Cl [FH535] (first compound 1 µM, partner dose 1 µM)",47.2
2,"Nc1cccc2c1CN(C1CCC(=O)NC1=O)C2=O (stereo unspecified) [lenalidomide] + CCN(CC)CCCCNc1ncc2cc(-c3cc(OC)cc(OC)c3)c(NC(=O)NC(C)(C)C)nc2n1 [PD173074] (first compound 1 µM, partner dose 0.1 µM)",169
3,"C[C@@H]1CCN(C(=O)CC#N)C[C@@H]1N(C)c1ncnc2[nH]ccc12 + O=C(O)C(=O)Nc1sc2c(c1C(=O)O)CCNC2 [TCS401] (first compound 1 µM, partner dose 1.66667 µM)",65.3
4,"OCCn1cc(-c2cnc3nnn(Cc4ccc5ncccc5c4)c3n2)cn1 + COc1ccc2c(c1)CCC1C2CCC2(C)C(NCCCCCCN3C(=O)C=CC3=O)CCC12 [U73122] (first compound 1 µM, partner dose 0.4 µM)",136
5,"Cc1cc(N2CCOCC2)cc2[nH]c(-c3c(NC[C@@H](O)c4cccc(Cl)c4)cc[nH]c3=O)nc12 + O=C(Nc1ccccc1)c1cc([N+](=O)[O-])ccc1Cl [GW9662] (first compound 0.2 µM, partner dose 2 µM)",67.8
6,"Nc1cccc2c1CN(C1CCC(=O)NC1=O)C2=O (stereo unspecified) [lenalidomide] + O=C(Nc1ccccc1)c1cc([N+](=O)[O-])ccc1Cl [GW9662] (first compound 1 µM, partner dose 2 µM)",53.9
